The values below come from PMC12429026.

Protein sequences, listed by entry. Tags and fused reporters are not part of them. Lines headed by an entry give the natural chain unless they say otherwise; changes in a name come on top.
UniProt Q9Z183: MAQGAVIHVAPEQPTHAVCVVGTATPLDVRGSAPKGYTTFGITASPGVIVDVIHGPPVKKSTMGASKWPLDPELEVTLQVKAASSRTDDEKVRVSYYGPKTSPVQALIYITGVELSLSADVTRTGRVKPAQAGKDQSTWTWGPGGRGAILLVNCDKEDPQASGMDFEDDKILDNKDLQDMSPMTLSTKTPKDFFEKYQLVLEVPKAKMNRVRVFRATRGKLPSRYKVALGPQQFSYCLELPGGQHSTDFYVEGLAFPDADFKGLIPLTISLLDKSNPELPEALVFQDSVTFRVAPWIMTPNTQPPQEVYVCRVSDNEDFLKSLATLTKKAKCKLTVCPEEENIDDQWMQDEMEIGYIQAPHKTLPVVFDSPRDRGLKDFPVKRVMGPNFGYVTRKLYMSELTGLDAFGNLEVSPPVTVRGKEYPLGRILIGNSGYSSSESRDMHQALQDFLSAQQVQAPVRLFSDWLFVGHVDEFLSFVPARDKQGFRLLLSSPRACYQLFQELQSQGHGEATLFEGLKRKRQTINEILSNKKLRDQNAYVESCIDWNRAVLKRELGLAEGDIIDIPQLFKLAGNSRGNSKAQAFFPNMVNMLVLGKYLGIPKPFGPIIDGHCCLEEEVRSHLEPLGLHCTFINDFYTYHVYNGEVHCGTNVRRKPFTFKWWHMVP
UniProt Q60876: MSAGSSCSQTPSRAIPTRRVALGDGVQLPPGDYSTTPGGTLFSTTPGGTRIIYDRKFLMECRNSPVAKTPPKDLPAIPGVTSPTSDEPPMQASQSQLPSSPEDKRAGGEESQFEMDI
UniProt P27782: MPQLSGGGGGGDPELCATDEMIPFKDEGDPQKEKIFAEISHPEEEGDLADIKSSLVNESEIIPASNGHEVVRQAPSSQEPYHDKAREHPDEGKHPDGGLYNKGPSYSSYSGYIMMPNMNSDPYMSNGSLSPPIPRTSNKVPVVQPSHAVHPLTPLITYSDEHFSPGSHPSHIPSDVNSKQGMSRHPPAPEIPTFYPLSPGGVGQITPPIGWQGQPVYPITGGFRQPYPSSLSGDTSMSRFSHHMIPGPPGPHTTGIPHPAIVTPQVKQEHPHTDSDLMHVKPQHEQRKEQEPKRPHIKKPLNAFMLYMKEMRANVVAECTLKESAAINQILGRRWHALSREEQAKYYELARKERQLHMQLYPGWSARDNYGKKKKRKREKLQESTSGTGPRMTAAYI

Results are given in words; binding and its absence hold for the method and conditions named. Binding seen in cells or lysates may run through a third protein. Some results given as binding are weak or reduced against the parent protein; the word gives no strength.

Experiment [1] deals with HA-PADI4 (pCW57.1) (mouse) (UniProt Q9Z183). The experiment in a line: co-IP; HA-PADI4 coexpressed with Flag-4E-BP1 WT or R62K in HEK293 cells; anti-HA beads by the text (anti-Flag by the legend); cells untreated or treated with ionomycin and Ca2+ before lysis.
For experiment [2] the target is unchanged. The experiment in a line: co-IP; PADI4 and LEF1 overexpressed in HEK293 cells; lysate in Pierce IP lysis buffer with protease inhibitors; the precipitated protein is not named in the text (methods: HA beads for HA-PADI4).

“3xFlag-4E-BP1_R62K (pCW57.1) (from UniProt Q60876 1-117)”: the binding result in experiment [1] is listed as “binds”.

For “3xFlag-4E-BP1_WT (pCW57.1) (from UniProt Q60876 1-117)”, the binding result in experiment [1] is “binds”.

In the case of “LEF1_6xHis (pUC.19) (from UniProt P27782 1-397)”, the binding entry in experiment [2] is given as “binds”.
